These are yes or no findings as the source states them, for the method shown. Binding seen in cells or lysates may run through a third protein. Some results given as binding are weak or reduced against the parent protein; the word gives no strength.

Chains of the proteins cited; added tags and fusions are not shown.
UniProt P03407: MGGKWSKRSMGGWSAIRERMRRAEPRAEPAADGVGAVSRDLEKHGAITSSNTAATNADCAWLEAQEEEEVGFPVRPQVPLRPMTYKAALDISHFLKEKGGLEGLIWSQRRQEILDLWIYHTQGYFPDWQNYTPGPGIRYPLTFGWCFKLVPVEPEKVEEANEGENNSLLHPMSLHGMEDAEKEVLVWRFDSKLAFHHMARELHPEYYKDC

The target of experiment [1] is IFITM3, FLAG-tagged copy and Myc-tagged copy (human) (UniProt Q01628). The experiment in a line: co-IP; anti-FLAG (M2) antibody added to 100 μg whole cell lysate of HEK293T co-transfected with IFITM3-FLAG and IFITM3-Myc, alone or with 97ZA Nef-HA; Dynabeads Protein G; immunoblot with anti-FLAG and anti-Myc.
Experiment [2] concerns the target SF2 Nef-HA (HIV-1 (molecular clone SF2)) (UniProt P03407). Description: co-IP; anti-HA antibody added to 100 μg whole cell lysate of co-transfected HEK293T (20 mM HEPES, 150 mM NaCl, 1 mM EDTA, 1% Triton X-100), 1 hour at 4°C, Dynabeads Protein G, three washes with lysis buffer; immunoblot with anti-HA and anti-IFITM3. On the technique in general: In western blotting, separated proteins are transferred to a membrane and probed.

Experiment [3] concerns the target LAI Nef-HA (HIV-1 (molecular clone LAI)) (UniProt P03406). The description is as above.

On to “IFITM3, FLAG-tagged copy and Myc-tagged copy (from UniProt Q01628 1-133)”, for which the binding result in experiment [1] was “binds”. With “human IFITM3 (untagged; interferon-induced transmembrane protein 3) (from UniProt Q01628 1-133)”, the binding entry in experiment [2] and in experiment [3] was “binds” throughout.

For the origin of these results see paper doi:10.1101/2025.05.15.654345.
